Measurements reported in PubChem BioAssay AID743458 (Peter MacCallum Cancer Centre, 2014)

Test: 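Identify genes whose loss lifts vorinostat resistance in colon cancer cells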 (follow-up of hits)
System: human HCT116-VR colon cancer cells made resistant to vorinostat
Reagent: single siRNA or pool against human genes, 25 nM per single siRNA
Timing: about 72 h after transfection, including 24 h of drug
Conditions: vorinostat, 2.5 µM final, for 24 h
Measurement: 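Cell viability by fluorescence and apoptosis by caspase 3/7 luminescence under vorinostat, background-corrected, averaged across two plate copies and given as fold change versus mock transfection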
Scale: viability relative to mock: higher = more living cells than mock; caspase activity relative to mock: higher = more apoptosis than mock
Hit rule: 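An siRNA counts as active if classed as reduced viability or as caspase activation, otherwise inactive; a hit class needed wells that remained healthy in the absence of drug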
The deposit covers about 1,800 reagents; this is a part drawn at random. Over the whole deposit, 732 (41%) were called active. 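Calls are per siRNA reagent; a gene was deemed confirmed only if most of its four siRNAs scored.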 The numbers tell different reagents against one gene apart.

| gene symbol | reagent no. | viability relative to mock | caspase activity relative to mock | viability hit class | caspase hit class | Call |
| --- | --- | --- | --- | --- | --- | --- |
| ALYREF | 1 | 0.63 | 5.15 | no change | caspase activation | active |
| ALYREF | 2 | 0.56 | 2.52 | reduced viability | no change | active |
| ALYREF | 3 | 0.81 | 1.31 | no change | no change | inactive |
| ALYREF | 4 | 0.72 | 1.54 | no change | no change | inactive |
| BEGAIN | 1 | 0.5 | 5.81 | reduced viability | caspase activation | active |
| BEGAIN | 2 | 0.69 | 4.1 | no change | caspase activation | active |
| BEGAIN | 3 | 0.94 | 0.86 | no change | no change | inactive |
| BEGAIN | 4 | 1 | 2.96 | no change | caspase activation | active |
| NOAZFP | 1 | 0.64 | 1.65 | no change | no change | inactive |
| NOAZFP | 2 | 0.96 | 1.23 | no change | no change | inactive |
| NOAZFP | 3 | 1.03 | 0.86 | no change | no change | inactive |
| NOAZFP | 4 | 0.92 | 0.82 | no change | no change | inactive |
| DNTTIP2 | 1 | 0.55 | 1 | reduced viability | no change | active |
| DNTTIP2 | 2 | 0.6 | 0.94 | no change | no change | inactive |
| DNTTIP2 | 3 | 0.55 | 1.38 | reduced viability | no change | active |
| DNTTIP2 | 4 | 0.58 | 1.01 | no change | no change | inactive |
| KDM5D | 1 | 0.92 | 1.23 | no change | no change | inactive |
| KDM5D | 2 | 0.88 | 1.08 | no change | no change | inactive |
| KDM5D | 3 | 0.88 | 1.05 | no change | no change | inactive |
| KDM5D | 4 | 0.82 | 0.76 | no change | no change | inactive |
| MGA | 1 | 0.22 | 2.36 | reduced viability | no change | active |
| MGA | 2 | 0.4 | 0.95 | reduced viability | no change | active |
| MGA | 3 | 0.21 | 3.17 | reduced viability | caspase activation | active |
| MGA | 4 | 1 | 1.21 | no change | no change | inactive |
| TRPM4 | 1 | 0.79 | 4.43 | no change | caspase activation | active |
| TRPM4 | 2 | 0.94 | 0.9 | no change | no change | inactive |
| TRPM4 | 3 | 0.94 | 1.04 | no change | no change | inactive |
| TRPM4 | 4 | 0.99 | 1.38 | no change | no change | inactive |
| AKAP8 | 1 | 0.82 | 5.42 | no change | caspase activation | active |
| AKAP8 | 2 | 1.07 | 1.36 | no change | no change | inactive |
| AKAP8 | 3 | 0.67 | 4.36 | no change | caspase activation | active |
| AKAP8 | 4 | 0.72 | 4.07 | no change | caspase activation | active |
| CALM2 | 1 | 0.74 | 0.96 | no change | no change | inactive |
| CALM2 | 2 | 0.9 | 1.72 | no change | no change | inactive |
| CALM2 | 3 | 0.8 | 1.43 | no change | no change | inactive |
| CALM2 | 4 | 0.82 | 2.25 | no change | no change | inactive |
| INTS2 | 1 | 0.74 | 4.71 | no change | caspase activation | active |
| INTS2 | 2 | 0.72 | 1.37 | no change | no change | inactive |
| INTS2 | 3 | 0.88 | 3.39 | no change | caspase activation | active |
| INTS2 | 4 | 0.88 | 1.8 | no change | no change | inactive |
| TTC22 | 1 | 0.33 | 1.68 | no change | no change | inactive |
| TTC22 | 2 | 1.03 | 3.49 | no change | caspase activation | active |
| TTC22 | 3 | 0.86 | 1.73 | no change | no change | inactive |
| TTC22 | 4 | 0.92 | 1.77 | no change | no change | inactive |
| PMS2 | 1 | 1.01 | 1.03 | no change | no change | inactive |
| PMS2 | 2 | 0.91 | 0.91 | no change | no change | inactive |
| PMS2 | 3 | 0.25 | 2.5 | reduced viability | no change | active |
| PMS2 | 4 | 0.92 | 0.88 | no change | no change | inactive |
| NUP133 | 1 | 0.29 | 5.45 | reduced viability | caspase activation | active |
| NUP133 | 2 | 0.76 | 4.45 | no change | caspase activation | active |
| NUP133 | 3 | 0.5 | 3.65 | reduced viability | caspase activation | active |
| NUP133 | 4 | 0.64 | 4 | no change | caspase activation | active |
| ARLN | 1 | 0.96 | 1.06 | no change | no change | inactive |
| ARLN | 2 | 0.96 | 1.06 | no change | no change | inactive |
| ARLN | 3 | 0.4 | 0.84 | reduced viability | no change | active |
| ARLN | 4 | 1.02 | 1.08 | no change | no change | inactive |
| FADS1 | 1 | 0.68 | 3.01 | no change | caspase activation | active |
| FADS1 | 2 | 0.67 | 0.99 | no change | no change | inactive |
| FADS1 | 3 | 0.78 | 0.66 | no change | no change | inactive |
| FADS1 | 4 | 0.42 | 4.92 | reduced viability | caspase activation | active |
